In US20140037624A1:
These are yes or no findings as the source states them, for the method shown. Some entries that bind do so weakly or less than the wild type.

Amino acid sequences for entries named in this document (tags omitted). A change or cut given only in a name is not applied to a line headed by its entry.
UniProt P01027: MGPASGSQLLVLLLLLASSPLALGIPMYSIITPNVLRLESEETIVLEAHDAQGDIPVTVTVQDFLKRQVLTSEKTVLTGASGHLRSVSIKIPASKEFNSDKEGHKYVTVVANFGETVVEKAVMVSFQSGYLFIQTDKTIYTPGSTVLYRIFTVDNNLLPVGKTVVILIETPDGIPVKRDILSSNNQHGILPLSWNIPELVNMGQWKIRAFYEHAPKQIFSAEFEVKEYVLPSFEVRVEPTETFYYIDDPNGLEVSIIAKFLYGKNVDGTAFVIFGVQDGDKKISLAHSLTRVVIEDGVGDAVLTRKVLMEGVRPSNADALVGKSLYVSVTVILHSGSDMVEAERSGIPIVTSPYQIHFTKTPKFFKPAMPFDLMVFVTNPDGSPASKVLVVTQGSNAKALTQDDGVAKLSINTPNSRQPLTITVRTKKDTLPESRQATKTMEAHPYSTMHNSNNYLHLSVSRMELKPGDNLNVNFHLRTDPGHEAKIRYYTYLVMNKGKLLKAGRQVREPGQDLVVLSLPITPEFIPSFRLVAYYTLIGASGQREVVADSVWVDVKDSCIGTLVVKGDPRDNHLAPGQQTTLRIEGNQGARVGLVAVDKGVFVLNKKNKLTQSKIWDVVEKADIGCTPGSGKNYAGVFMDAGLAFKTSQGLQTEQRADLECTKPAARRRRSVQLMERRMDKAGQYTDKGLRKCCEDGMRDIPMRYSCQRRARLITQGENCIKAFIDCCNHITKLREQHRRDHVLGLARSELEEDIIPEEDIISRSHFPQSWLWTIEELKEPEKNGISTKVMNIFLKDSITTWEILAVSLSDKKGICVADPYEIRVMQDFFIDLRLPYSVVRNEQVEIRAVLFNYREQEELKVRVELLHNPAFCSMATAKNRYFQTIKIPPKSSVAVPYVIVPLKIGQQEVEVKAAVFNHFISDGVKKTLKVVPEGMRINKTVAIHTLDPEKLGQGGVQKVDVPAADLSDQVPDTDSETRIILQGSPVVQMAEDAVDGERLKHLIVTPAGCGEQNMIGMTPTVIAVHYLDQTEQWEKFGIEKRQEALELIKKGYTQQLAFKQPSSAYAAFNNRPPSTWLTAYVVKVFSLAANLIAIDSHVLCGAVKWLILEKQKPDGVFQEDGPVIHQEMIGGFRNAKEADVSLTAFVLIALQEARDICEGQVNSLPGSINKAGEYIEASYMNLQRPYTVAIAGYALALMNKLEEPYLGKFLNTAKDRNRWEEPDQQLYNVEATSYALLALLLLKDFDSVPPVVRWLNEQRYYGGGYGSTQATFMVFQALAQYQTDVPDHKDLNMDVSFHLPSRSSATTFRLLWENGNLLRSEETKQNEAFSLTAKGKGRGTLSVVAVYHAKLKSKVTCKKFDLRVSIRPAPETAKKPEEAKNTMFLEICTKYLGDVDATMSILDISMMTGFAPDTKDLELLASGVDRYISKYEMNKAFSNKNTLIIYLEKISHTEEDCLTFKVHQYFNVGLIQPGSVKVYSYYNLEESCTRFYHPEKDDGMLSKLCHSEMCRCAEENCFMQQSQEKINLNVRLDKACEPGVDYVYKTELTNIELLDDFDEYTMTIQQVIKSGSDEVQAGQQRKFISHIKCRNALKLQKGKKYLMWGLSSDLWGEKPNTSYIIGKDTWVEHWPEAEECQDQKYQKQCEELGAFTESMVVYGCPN

Experiments:
[1] = biological target: T1, human FGFR4 (recombinant, construct not stated; SPR, FGFR4 ELISA, receptor-binding assay) (human) (UniProt P22455); test: FGFR4 ELISA, FGFR4 immobilized
T1 sequence: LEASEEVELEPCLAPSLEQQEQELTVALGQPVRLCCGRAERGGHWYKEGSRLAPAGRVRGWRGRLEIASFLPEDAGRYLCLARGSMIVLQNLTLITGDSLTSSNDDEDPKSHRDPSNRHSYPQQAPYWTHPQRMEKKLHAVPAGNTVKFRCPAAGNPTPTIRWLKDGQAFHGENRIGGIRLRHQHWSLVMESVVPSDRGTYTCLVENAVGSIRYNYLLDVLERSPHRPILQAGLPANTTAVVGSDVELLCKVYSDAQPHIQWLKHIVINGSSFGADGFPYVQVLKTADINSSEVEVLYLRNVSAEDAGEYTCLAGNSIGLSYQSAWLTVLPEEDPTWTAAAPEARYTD

[2] = biological target: mouse complement C3 (ca. 37 kDa fragment, C3d, from mouse plasma) (mouse) (UniProt P01027); test: protein-G pull-down from serum of mice 2 h after dosing, SDS-PAGE
[3] = biological target: mouse complement C3 (ca. 37 kDa fragment, C3d, from mouse plasma) (mouse) (UniProt P01027); test: size-exclusion HPLC of 125I-antibody incubated in mouse plasma; the filing finds the ca. 37 kDa C3 fragment in the fractions of the 270 kDa peak (FIG. 12C)
[4] = biological target: mouse complement C3 (ca. 37 kDa fragment, C3d, from mouse plasma) (mouse) (UniProt P01027); test: immunoprecipitation from mouse plasma, MS/MS
[5] = biological target: mouse complement C3 (ca. 37 kDa fragment, C3d, from mouse plasma) (mouse) (UniProt P01027); test: protein-G pull-down from size-exclusion fractions of mouse plasma incubated with antibody, SDS-PAGE, Coomassie
[6] = biological target: mouse complement C3 (ca. 37 kDa fragment, C3d, from mouse plasma) (mouse) (UniProt P01027); test: protein-G pull-down from serum of dosed mice, SDS-PAGE (FIG. 16D)
[7] = biological target: mouse complement C3 (ca. 37 kDa fragment, C3d, from mouse plasma) (mouse) (UniProt P01027); test: size-exclusion HPLC of serum from mice dosed with 125I-hLD1.vB (axis 15 to 25, unit not given); partner named by the filing through the pull-down of FIG. 16D
[8] = biological target: mouse complement C3 (ca. 37 kDa fragment, C3d, from mouse plasma) (mouse) (UniProt P01027); test: immunoprecipitation from NCR nude mouse plasma, SDS-PAGE (FIG. 13B)
[9] = biological target: T1, human FGFR4 (recombinant, construct not stated; SPR, FGFR4 ELISA, receptor-binding assay) (human); test: FGFR4 ELISA (immobilized FGFR4), O.D. 450 nm against IgG concentration
[10] = biological target: mouse complement C3 (ca. 37 kDa fragment, C3d, from mouse plasma) (mouse) (UniProt P01027); test: immunoprecipitation from mouse plasma, SDS-PAGE, band identified by MS/MS as derived from mouse complement C3
[11] = biological target: T1, human FGFR4 (recombinant, construct not stated; SPR, FGFR4 ELISA, receptor-binding assay) (human); test: surface plasmon resonance
[12] = biological target: mouse complement C3 (ca. 37 kDa fragment, C3d, from mouse plasma) (mouse) (UniProt P01027); test: size-exclusion HPLC fractions, protein-G pull-down, SDS-PAGE; MS/MS coverage of mouse C3 (FIG. 12C, 12D)
[13] = biological target: mouse complement C3 (ca. 37 kDa fragment, C3d, from mouse plasma) (mouse) (UniProt P01027); test: immunoprecipitation from NCR nude mouse plasma, SDS-PAGE
[14] = biological target: mouse complement C3 (ca. 37 kDa fragment, C3d, from mouse plasma) (mouse) (UniProt P01027); test: size-exclusion HPLC of 125I-hLD1.vB in mouse plasma (axis 10 to 20, unit not given); partner named by the filing through the pull-down of FIG. 12C

Measured: binding

B1: hLD1.vB (humanized LD1 with light chain P44F, L46I, Y49S) (antibody, V domains shown)
VH: EVQLVESGGGLVQPGGSLRLSCAASGYTFTNHWMNWVRQAPGKGLEWVGMIHPSDSETTLDQKFKDRFTISADTSKNTAYLQMNSLRAEDTAVYYCTRGDISLFDYWGQGTLVTVSS
VL: DIQMTQSPSSLSASVGDRVTITCRTSQDISNFLNWYQQKPGKAFKILISYTSRLHSGVPSRFSGSGSGTDFTLTISSLQPEDFATYYCQQGNALPYTFGQGTKVEIK
binds: all assays above

B2: hLD1.v22 (humanized and affinity matured LD1) (antibody, V domains shown)
VH: EVQLVESGGGLVQPGGSLRLSCAASGYTFTNHWMNWVRQAPGKGLEWVGMILPVDSETTLEQKFKDRFTISADTSKNTAYLQMNSLRAEDTAVYYCTRGDISLFDYWGQGTLVTVSS
VL: DIQMTQSPSSLSASVGDRVTITCRTSQDISNFLNWYQQKPGKAFKILISYTSRLHSGVPSRFSGSGSGTDFTLTISSLQPEDFATYYCQQGNALPYTFGQGTKVEIKR
binds: [11]
